Measurements reported in PubChem BioAssay AID504444 (National Center for Advancing Translational Sciences (NCATS), 2011).
Hit rate of the full screen: of about 360,000 compounds, about 7,500 (2.1%) were called active. Inconclusive means that the source gave no clear call. Such entries were picked first, then a sample of the others. Calls come from the whole dose curve; as a rule, active = well fitted inhibition curve with a large enough effect; inconclusive = small, poorly fitted or top-dose-only effect, or effect the other way; inactive = flat fitted curve, though single readings scatter. A potency beside an inconclusive call is a rough fit, not a confirmed value.
% is set by controls: 0 for no effect and ±100 for the full control effect; potency is the fitted concentration of half-maximal effect.

Test: Nrf2 qHTS screen for inhibitors; note: nearly all actives have a fitted effect of over 60% in size
Details: A549 ARE-Fluc reporter, luciferase luminescence, 18-24 h; activity change, negative = inhibition: at 46 µM (top of the series)
How it was run: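 Two sequential reads on A549 ARE_Fluc cells exposed to compound for 18-24 h: a CellTiter-Fluor fluorescence read for viability, then a luciferase luminescence read for Nrf2/ARE activity.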
For `COc1ccc(S(=O)(=O)N2CCN(CC(=O)N3CCc4ccccc4C3)CC2)cc1OC`, the Potency was inconclusive: 10.3 µM [falling, single point].
For `O=C1OCCC1Sc1nnc(-c2ccc(F)cc2)n1Cc1ccccc1` (configuration not stated), the “activity change, negative = inhibition” value was inactive: 6.59%.
In the case of `Cc1ccc2c(c1)[C@H]1[C@H](CO2)[C@H](c2ccccc2)[C@]2(C)C(=O)N(C)CC(=O)N12`, the Potency is reported as active: 20.6 µM.
In the case of `COc1ccccc1/C=C/C=C1N=C(/C=C/c2ccc(Cl)cc2)OC/1=O`, the “activity change, negative = inhibition” value is reported as inactive: 14.8%.
For `CCC1CCCCN1C(=O)CSc1nnc(-c2c[nH]c3ccccc23)o1` (configuration not stated), the “activity change, negative = inhibition” value was inactive: -8.97%.
In the case of `Cc1ccc(C)c2nc(Cl)c(C3NC(=O)c4ccccc4N3)cc12` (configuration not stated), the Potency is reported as inconclusive: 14.6 µM [falling, partial curve, poor fit].
With `CC(C)Sc1nc2c([nH]c3ccccc32)c(=O)n1C` the Potency was inconclusive: 2.31 µM [activator, single point].
With `COc1ccc(CN(C)C(=O)c2cc(-c3ccccc3)nc3ccc(C)cc23)c(OC)c1OC` the “activity change, negative = inhibition” value was inactive: -15.3%.
In the case of `Cc1cc(C(=O)CSc2nc3ccccc3[nH]2)c(C)n1Cc1ccco1`, the Potency is reported as inconclusive: 32.6 µM [falling, single point].
In the case of `CC(=O)Nc1ccc2c(c1)Cc1c(F)cccc1-2`, the Potency is reported as inconclusive: 5.8 µM [activator, partial curve].
For `CCN(C(=O)CCc1nc(-c2ccc(C)cc2)no1)c1cccc(Cl)c1`, the Potency was inconclusive: 29.1 µM [falling, single point].
For `COc1ccc(CC(=O)OCc2cc3ccc(C)cc3[nH]c2=O)cc1`, the Potency was inconclusive: 4.11 µM [activator, partial curve, poor fit].
For `COc1cc([N+](=O)[O-])ccc1NC(=O)C[n+]1ccccc1`, the Potency was inconclusive: 0.13 µM [activator, full curve, poor fit].
With `CC(C)(C)C(=O)c1cnc(Nc2ccccc2Cl)s1` the Potency was inconclusive: 5.17 µM [activator, partial curve].
With `O=C(N[C@@H](Cc1ccccc1)C(=O)N1CCN(S(=O)(=O)c2ccccc2F)CC1)c1ccco1` the “activity change, negative = inhibition” value was inactive: -4.42%.
In the case of `CCCNS(=O)(=O)c1ccc(CCC(=O)Nc2ccc3c(c2)OCO3)cc1`, the Potency is reported as inconclusive: 14.6 µM [falling, partial curve, poor fit].
With `CCOC(=O)c1[nH]c2ccc(OCC)cc2c1NC(=O)CN1CCC2(CC1)OCCO2` the “activity change, negative = inhibition” value was inactive: -8.06%.
In the case of `Cc1nc(N/N=C/c2ccccn2)sc1C`, the Potency is reported as inconclusive: 29.1 µM [falling, single point].
With `Cc1ccc(C(=O)CSc2ncnc3ccccc23)o1` the Potency was inconclusive: 1.03 µM [activator, full curve, poor fit].
In the case of `FC(F)(F)c1cccc(NC(=S)Nc2cccc(Cl)c2)c1`, the Potency is reported as inconclusive: 32.6 µM [falling, single point].
In the case of `Cc1ccccc1C(=O)N1CCN(c2ncnc3c2cnn3-c2ccccc2)CC1`, the Potency is reported as inconclusive: 7.31 µM [falling, partial curve, poor fit].
For `COc1ccc(-n2c(CCc3ccccc3)nnc2SCC(=O)c2ccccc2)cc1`, the Potency was inconclusive: 29.1 µM [falling, single point].
For `COc1ccccc1-n1cnnc1SCc1csc(-c2ccccc2)n1`, the “activity change, negative = inhibition” value was inactive: -10.9%.
In the case of `O=C(COCC(=O)Nc1cccc(C(F)(F)F)c1)Nc1cccc(C(F)(F)F)c1`, the Potency is reported as inconclusive: 29.1 µM [falling, single point].
In the case of `COc1ccc(C)cc1NC(=O)c1cc2ccccn2n1`, the “activity change, negative = inhibition” value is reported as inactive: -20.7%.
For `CCc1ccc(NC(=O)C2CCCN(S(=O)(=O)c3cccc4nsnc34)C2)cc1` (configuration not stated), the Potency was inconclusive: 29.1 µM [falling, single point].
For `O=C1CSC(c2nn(-c3ccccc3)cc2-c2cc3ccccc3oc2=O)N1Cc1ccco1` (configuration not stated), the “activity change, negative = inhibition” value was inactive: -12.7%.
With `CCNS(=O)(=O)c1ccc(CCC(=O)Nc2cc(Cl)ccc2Oc2ccccc2)cc1` the Potency was inconclusive: 25.9 µM [falling, single point].
For `O=C(Nc1nc2c(F)cc(F)cc2s1)C1COc2ccccc2O1` (configuration not stated), the “activity change, negative = inhibition” value was inactive: 0%.
For `CCOC(=O)N1CCC(N2Cc3cccc(C(=O)Nc4ccc(CC)cc4)c3C2=O)CC1`, the Potency was inconclusive: 29.1 µM [falling, single point].
For `O=C(COc1ccc2c3c(c(=O)oc2c1)CCCC3)NCc1cccnc1`, the Potency was inconclusive: 18.4 µM [falling, single point].
For `O=C(CCCn1nnc(-c2cccnc2)n1)c1ccc(F)cc1`, the Potency was inconclusive: 23.1 µM [falling, partial curve, poor fit].
In the case of `CC(=O)Nc1ccc(NC(=O)/C=C/c2ccc(Cl)cc2)cc1`, the “activity change, negative = inhibition” value is reported as inactive: 4.5%.
With `Cc1nn(-c2ccccc2)c(N2CCCC2)c1/C=N/NC(=O)c1cc(-c2cccnc2)nc2ccccc12` the Potency was inconclusive: 18.4 µM [falling, single point].
With `O=C(NCc1ccc(F)cc1)C(=O)NCC1CCCN1S(=O)(=O)c1ccccc1` (configuration not stated) the Potency was inconclusive: 13 µM [falling, partial curve, poor fit].
For `CN1CCC(=NNC(=O)COc2ccc(Cl)cc2)CC1`, the Potency was inconclusive: 14.6 µM [activator, partial curve, poor fit].
For `O=C(O)c1cccc(C(=O)Cc2ccccc2)c1`, the “activity change, negative = inhibition” value was inactive: 2.34%.
In the case of `CCOc1ccc(-n2c(=O)cc(N3CCN(c4ccccc4)CC3)[nH]c2=O)cc1`, the Potency is reported as inconclusive: 3.66 µM [activator, single point].
In the case of `O=C(O)C(Oc1ccc2cc(-c3ccc(Cl)cc3)c(=O)oc2c1)c1ccccc1` (configuration not stated), the “activity change, negative = inhibition” value is reported as inactive: 5.25%.
In the case of `N#Cc1c(N2CCOCC2)nc(-c2ccco2)c2c1CCCC2`, the “activity change, negative = inhibition” value is reported as inactive: 1.72%.
In the case of `c1ccc(Cn2cc(CNc3ccccc3)nn2)cc1`, the Potency is reported as inconclusive: 7.31 µM [activator, partial curve, poor fit].
With `COc1ccc(/C=C/C(=O)Nc2cccc(S(=O)(=O)NC3=NCCCCC3)c2)c(OC)c1` the Potency was inconclusive: 20.6 µM [falling, partial curve].
With `COc1ccc(-c2nc(N)ncc2-c2ccc(OC)c(OC)c2)c(O)c1` the Potency was inconclusive: 18.4 µM [falling, partial curve, poor fit].
In the case of `Cc1cc(NC(=O)c2ccco2)sc1C`, the Potency is reported as inconclusive: 0.731 µM [activator, partial curve].
With `CC1CN(CCS(=O)(=O)c2cc(Cl)ccc2Cl)CC(C)O1` (configuration not stated) the Potency was inconclusive: 18.4 µM [falling, partial curve, poor fit].
In the case of `COc1ccc(NC(=O)Nc2cccs2)cc1OC`, the “activity change, negative = inhibition” value is reported as inactive: 7.58%.
In the case of `CCCOC(=O)c1ccc(Oc2coc3c(CN(CC)CC)c(O)ccc3c2=O)cc1`, the Potency is reported as inconclusive: 6.51 µM [falling, partial curve, poor fit].
For `COc1ccccc1CNC(=O)C(Cc1c[nH]c2ccccc12)NC(=O)OCc1ccccc1` (configuration not stated), the Potency was inconclusive: 20.6 µM [falling, partial curve].
With `CC(C)(C)n1cnc2cc(NS(=O)(=O)c3ccc(Br)cc3)ccc21` the Potency was inconclusive: 29.1 µM [falling, single point].
In the case of `CCOC(=O)c1ccc(NC(=O)c2sc3ccccc3c2Cl)cc1`, the Potency is reported as inconclusive: 5.8 µM [activator, full curve].
In the case of `Cc1ccc(NC(=O)c2c(C)nc3sc(C(=O)Nc4ccc(F)cc4)c(N)c3c2-c2ccc(Cl)cc2)c(C)c1`, the activity change, negative = inhibition is reported as inactive: 4.3% [at 9.27 µM].
For `Cc1nc(-c2cccc(NC(=O)C(C)Oc3ccccc3)c2)cs1` (configuration not stated), the Potency was inconclusive: 4.61 µM [falling, partial curve].
In the case of `CCOC(=O)c1c(C)[nH]c(C)c1C(=O)CSc1nc2ccccc2c(=O)n1-c1ccc(Cl)cc1`, the Potency is reported as inconclusive: 16.4 µM [falling, single point].
For `OC(c1cccc(OCc2ccccc2)c1)c1nnc(-c2ccccc2)o1` (configuration not stated), the Potency was inconclusive: 20.6 µM [falling, single point].
For `O=C1CC(c2nnc(Cc3c(F)cccc3Cl)o2)CN1c1ccccc1` (configuration not stated), the Potency was inconclusive: 0.184 µM [falling, full curve, poor fit].
In the case of `Cc1ccc(Nc2c(-c3ccc(N4CCOCC4)cc3)nc3cccc(C)n23)cc1`, the Potency is reported as inconclusive: 0.92 µM [activator, full curve].
For `COC(=O)Cc1cc(C)cc2c(=O)cc(-c3ccoc3)oc12`, the Potency was inconclusive: 11.6 µM [activator, partial curve, poor fit].
With `COc1cc2[nH]c(=S)n(Cc3ccc(F)cc3)c(=O)c2cc1OC` the Potency was inconclusive: 14.6 µM [falling, single point].
In the case of `COc1ccc(-c2ccc(C#N)c(OC(=O)c3c(Cl)cccc3Cl)n2)cc1`, the Potency is reported as inconclusive: 16.4 µM [falling, single point].
In the case of `COc1cc2c(cc1OC)-c1cc(Nc3ccc4c(c3)OCCO4)nc(=O)n1CC2`, the Potency is reported as inconclusive: 2.91 µM [activator, single point].
For `Cc1c(N=C2C=CC(=O)c3ccccc32)c(=O)n(-c2ccccc2)n1C`, the Potency was inconclusive: 14.6 µM [falling, partial curve, poor fit].
For `O=C(Nc1ccc(-c2nc3ccccc3o2)cc1)c1cc(-n2cnnc2)ccc1Cl`, the Potency was inconclusive: 29.1 µM [falling, single point].
For `COc1cc(/C=N/Nc2nc3ccccc3[nH]2)cc(OC)c1O`, the “activity change, negative = inhibition” value was inactive: -4.43%.
For `CN(C)S(=O)(=O)c1cccc(COC(=O)c2cc([N+](=O)[O-])ccc2N2CCOCC2)c1`, the Potency was inconclusive: 18.4 µM [falling, single point].
In the case of `CN1CCSc2ccc(C(=O)Nc3cc(F)ccc3F)cc21`, the Potency is reported as inconclusive: 5.17 µM [activator, partial curve].
With `CCOC(=O)C1=C(CCl)NC(=O)NC1c1ccc2c(c1)OCO2` (configuration not stated) the Potency was active: 14.6 µM.
In the case of `CN(C)c1ccc(CNC(=O)C2CCCN(S(=O)(=O)c3ccc4c(c3)CCCC(=O)N4)C2)cc1` (configuration not stated), the Potency is reported as active: 5.8 µM.
